According to publication PMC11290490, “Structural insights into activation mechanisms on NADase of the bacterial DSR2 anti-phage defense system” (Science Advances, 2024):
These are yes or no findings as the source states them, for the method shown. Some entries that bind do so weakly or less than the wild type.

Target: T1, defense-associated sirtuin2 (DSR2) from Bacillus subtilis 29R (Bacillus subtilis 29R) (UniProt P0DXN8)
T1 sequence: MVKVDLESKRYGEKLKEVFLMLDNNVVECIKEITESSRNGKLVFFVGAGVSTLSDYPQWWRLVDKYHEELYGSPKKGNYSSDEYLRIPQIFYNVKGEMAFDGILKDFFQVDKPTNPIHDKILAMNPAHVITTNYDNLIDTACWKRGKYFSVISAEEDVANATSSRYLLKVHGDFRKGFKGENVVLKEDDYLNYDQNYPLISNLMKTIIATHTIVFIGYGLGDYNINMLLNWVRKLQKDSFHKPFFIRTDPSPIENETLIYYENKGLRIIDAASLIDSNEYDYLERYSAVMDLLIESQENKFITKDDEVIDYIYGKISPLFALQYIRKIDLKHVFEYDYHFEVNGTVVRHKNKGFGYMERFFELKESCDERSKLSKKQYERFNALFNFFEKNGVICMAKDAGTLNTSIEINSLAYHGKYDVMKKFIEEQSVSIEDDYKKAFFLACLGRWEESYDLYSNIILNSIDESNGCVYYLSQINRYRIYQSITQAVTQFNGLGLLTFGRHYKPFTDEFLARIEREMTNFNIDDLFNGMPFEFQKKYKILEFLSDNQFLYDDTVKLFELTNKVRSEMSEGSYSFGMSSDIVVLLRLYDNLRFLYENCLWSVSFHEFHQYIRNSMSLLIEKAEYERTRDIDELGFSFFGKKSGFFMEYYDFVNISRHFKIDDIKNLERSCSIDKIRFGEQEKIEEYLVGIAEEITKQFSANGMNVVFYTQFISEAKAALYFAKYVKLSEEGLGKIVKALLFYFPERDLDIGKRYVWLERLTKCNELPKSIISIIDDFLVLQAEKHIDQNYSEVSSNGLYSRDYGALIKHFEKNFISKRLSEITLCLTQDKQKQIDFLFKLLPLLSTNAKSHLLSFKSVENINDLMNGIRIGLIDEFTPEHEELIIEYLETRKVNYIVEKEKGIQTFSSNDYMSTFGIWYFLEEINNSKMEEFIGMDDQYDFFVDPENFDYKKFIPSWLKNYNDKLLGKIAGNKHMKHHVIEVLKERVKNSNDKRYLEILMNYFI
Test: cryo-EM structure; purified DSR2 or its complex with DSAD1 or TTP (formed at a molar ratio of 1:3, on ice, purified by gel filtration), 1.0 mg/ml on Quantifoil grids; both purified

B1: DSR anti-defense 1 (DSAD1) from phage phi3T/SPbeta (natural protein)
chain: KDTGATHDLVYHSKINTFVWDVEFDIVLSDSKELNKCYFVKCFNPYRINGKCDFAVSSIDIFSEGKRLLIENEFNFKITKAVHVATSKDVTEIVLHLSERISSPFPIVKEVVYLD
notes: DSAD1 from phage phi3T/SPbeta, WP_004399562; source: E. coli BL21(DE3), purified (Ni-NTA, TEV cleavage, SEC); not shown: His-tag, N-terminal, cleaved; Trx-tag, N-terminal, cleaved
Q: How did the binding turn out when B1 was run?
A: Its binding is “binds”.
